SMILES strings stand for the structures. This is one part of the list. Further columns of the screen follow, without active or inactive calls.

This assay can be described thus: wild-type yeast growth inhibition sparing TORC1 bypass cells, mechanism study for yeast TOR pathway GFP screen, BY4741 wild type, TORC1 bypass strain (AID 504456). The conditions noted are these: S. cerevisiae BY4741 spot growth rating, 48-72 h, at 30 µM.
`Nc1nc(Nc2cccc(F)c2)nc(Nc2cccc(F)c2)c1[N+](=O)[O-]` yielded a growth rating (0-3) of 3.

`COc1ccc([N+](=O)[O-])c(S(=O)(=O)c2ccc(Cl)cc2)n1`: the growth rating (0-3) amounted to 3.

`CC(C)(C)c1ccc(NC(=O)COC(=O)c2ccc([N+](=O)[O-])s2)cc1`: the growth rating (0-3) came to 0.

As for `COc1ccc(C(=O)NC(=S)NNC(=O)c2cnccn2)cc1`, the growth rating (0-3) is 3.

In the case of `CNc1nc(N)c([N+](=O)[O-])c(Nc2ccc(Cl)cc2)n1`, the growth rating (0-3) came to 3.

`CC(Oc1ccc(Cl)cc1)C(=O)NNC(=S)NC(=O)c1ccco1` (stereo not drawn) yielded a growth rating (0-3) of 3.

The compound `Cc1cc(C(=O)Nc2nc(-c3ccccn3)cs2)ccc1[N+](=O)[O-]` registered a growth rating (0-3) of 3.

Compound `CCCOc1ccc(C(=O)NNC(=S)NC(=O)CC)cc1` registered a growth rating (0-3) of 3.

`CSc1nnc2c3cc(F)ccc3n(C)c2n1`: the growth rating (0-3) came to 3.

Compound `Cc1cc(Nc2cc(-c3ccccc3)nc(NCc3ccccc3)n2)n[nH]1` showed a growth rating (0-3) of 3.

In turn, `Cc1ccc(C(=O)NNC(=S)NC(=O)COc2ccccc2)cc1` had a growth rating (0-3) of 3.

Compound `CNc1nc(N)c([N+](=O)[O-])c(Nc2ccccc2)n1` displayed a growth rating (0-3) of 3.

`CNc1nc(N)c([N+](=O)[O-])c(Nc2cccc(Cl)c2)n1` gave a growth rating (0-3) of 3.

For `O=c1cc(CSc2ccc(Cl)cc2)nc(-c2ccccn2)[nH]1`, the growth rating (0-3) came to 0.

With `CC(C)(C)C(=O)NC(=S)NNC(=O)c1ccc(-c2ccccc2)cc1`, the growth rating (0-3) was determined as 3.

In turn, `CC(Oc1ccc(Br)cc1)C(=O)Nc1nc(-c2ccccn2)cs1` (stereo not drawn) had a growth rating (0-3) of 3.

`CNc1nc(N)c([N+](=O)[O-])c(Nc2cc(OC)ccc2OC)n1` had a growth rating (0-3) of 3.

As to `CNc1nc(N)c([N+](=O)[O-])c(Nc2ccc(F)cc2)n1`, the growth rating (0-3) turned out to be 3.

In turn, `O=[N+]([O-])c1c(NC2CCCCC2)nc(NCc2ccccc2)nc1N1CCOCC1` returned a growth rating (0-3) of 3.

The compound `CCC(C)Nc1nc(N)c([N+](=O)[O-])c(Nc2cccc(F)c2)n1` (stereo not drawn) yielded a growth rating (0-3) of 3.

`COC(=O)c1cccc(-c2cc(Nc3cc(C)[nH]n3)nc(NCc3ccccc3)n2)c1` yielded a growth rating (0-3) of 3.

Compound `CNc1nc(N)cc(Oc2cccc(Cl)c2)n1` gave a growth rating (0-3) of 3.

Compound `Cc1ccc2nc(Cl)c3nnnn3c2c1` had a growth rating (0-3) of 0.

`O=[N+]([O-])c1ccc(O)c2ncccc12` showed a growth rating (0-3) of 3.

Compound `CCN(CC)C(=O)Oc1ccnc2cc(Cl)ccc12` registered a growth rating (0-3) of 3.

In turn, `CNc1nc(N)c([N+](=O)[O-])c(Nc2ccccc2OC)n1` yielded a growth rating (0-3) of 3.

In the case of `O=C(COc1ccc(F)cc1Cl)Nc1nc(-c2ccccn2)cs1`, the growth rating (0-3) was 3.

As for `Clc1cc(Cl)cc(Nc2cc(Oc3cccc(Cl)c3)nc(NCc3ccccc3)n2)c1`, the growth rating (0-3) came to 3.

`O=[N+]([O-])c1cc(O)c2ncccc2c1` returned a growth rating (0-3) of 3.

For `Cc1ccc(/C=C2/C(=O)ON=C2c2ccccc2)o1`, the growth rating (0-3) was determined as 3.

Compound `O=S(=O)(CCN(CCS(=O)(=O)C(F)(F)F)CC1CCCO1)C(F)(F)F` (stereo not drawn) yielded a growth rating (0-3) of 3.

`CSC1=NS(=O)(=O)c2c(C)nn(C)c2S1` displayed a growth rating (0-3) of 3.

In turn, `O=C(Oc1c(Cl)cc(Cl)c2cccnc12)c1cccc([N+](=O)[O-])c1` returned a growth rating (0-3) of 0.

Take `Nc1cc(Nc2cccc(F)c2)nc(NCc2ccccc2)n1`: the growth rating (0-3) was determined as 3.

`COc1cccc(-c2cc(Nc3cc(C)[nH]n3)nc(NCc3ccccc3)n2)c1`: the growth rating (0-3) was determined as 3.

As to `C/C(=N\NC(=O)c1ccc(C(C)(C)C)cc1)c1ccccn1`, the growth rating (0-3) came to 3.

The compound `CCOC(=O)CCS(=O)(=O)c1nc(-c2ccccc2)cc(C(F)(F)F)n1` came in with a growth rating (0-3) of 3.

Consider `O=C(OCC(=O)N1CCN(C(=O)c2ccco2)CC1)c1cc(-c2cccc(Br)c2)nc2ccccc12`, for which the growth rating (0-3) amounted to 3.

The values are drawn from PubChem BioAssay AID504456 (NMMLSC, 2011).
